From PMC4682051
Results are given in words; binding and its absence hold for the method and conditions named. Binding seen in cells or lysates may run through a third protein. Some results given as binding are weak or reduced against the parent protein; the word gives no strength.

What was measured:
[1] = biological target: T1, CDC42EP4 (mouse (endogenous in cerebellum)) (UniProt Q9JM96); assay: co-IP; whole cerebella of WT and Cdc42ep4-/- (KO) mice lysed in buffer A' (0.2 M Tris-HCl pH 7.35, 0.3 M NaCl, 0.2% SDS, 0.2% Triton X-100, 0.2% sodium deoxycholate, 20 mM 2-mercaptoethanol); anti-CDC42EP4 or anti-SEPT4 on protein A beads, nonimmune rabbit IgG as control; immunoblot
T1 sequence: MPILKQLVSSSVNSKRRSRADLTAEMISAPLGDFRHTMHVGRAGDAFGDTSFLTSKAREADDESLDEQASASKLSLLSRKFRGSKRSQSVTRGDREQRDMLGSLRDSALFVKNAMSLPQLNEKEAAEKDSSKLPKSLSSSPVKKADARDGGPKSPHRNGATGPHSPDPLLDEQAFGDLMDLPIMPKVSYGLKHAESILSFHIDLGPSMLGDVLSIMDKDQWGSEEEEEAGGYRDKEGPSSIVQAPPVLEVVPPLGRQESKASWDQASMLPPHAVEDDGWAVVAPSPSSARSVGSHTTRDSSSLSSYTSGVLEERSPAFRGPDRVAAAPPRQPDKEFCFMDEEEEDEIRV

[2] = biological target: T2, SEPT4 (mouse (endogenous in cerebellum)) (UniProt P28661); assay: as above
T2 sequence: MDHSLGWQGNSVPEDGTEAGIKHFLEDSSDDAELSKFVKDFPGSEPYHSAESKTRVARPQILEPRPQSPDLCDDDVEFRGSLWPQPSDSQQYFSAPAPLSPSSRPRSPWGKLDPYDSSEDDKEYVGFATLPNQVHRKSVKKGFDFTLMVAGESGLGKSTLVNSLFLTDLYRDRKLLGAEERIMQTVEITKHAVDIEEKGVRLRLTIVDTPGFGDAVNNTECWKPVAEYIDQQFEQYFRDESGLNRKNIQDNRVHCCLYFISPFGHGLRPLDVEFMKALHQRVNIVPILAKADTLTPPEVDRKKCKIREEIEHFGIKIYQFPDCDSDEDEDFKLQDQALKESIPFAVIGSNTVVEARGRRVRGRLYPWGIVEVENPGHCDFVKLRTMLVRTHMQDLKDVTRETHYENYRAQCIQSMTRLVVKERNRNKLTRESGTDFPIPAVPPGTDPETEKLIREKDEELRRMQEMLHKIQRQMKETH

Row | Binder | binding [1] | binding [2]
1 | SEPT4 (protein, UniProt P28661 1-478) MDHSLGWQGNSVPEDGTEAGIKHFLEDSSDDAELSKFVKDFPGSEPYHSAESKTRVARPQILEPRPQSPDLCDDDVEFRGSLWPQPSDSQQYFSAPAPLSPSSRPRSPWGKLDPYDSSEDDKEYVGFATLPNQVHRKSVKKGFDFTLMVAGESGLGKSTLVNSLFLTDLYRDRKLLGAEERIMQTVEITKHAVDIEEKGVRLRLTIVDTPGFGDAVNNTECWKPVAEYIDQQFEQYFRDESGLNRKNIQDNRVHCCLYFISPFGHGLRPLDVEFMKALHQRVNIVPILAKADTLTPPEVDRKKCKIREEIEHFGIKIYQFPDCDSDEDEDFKLQDQALKESIPFAVIGSNTVVEARGRRVRGRLYPWGIVEVENPGHCDFVKLRTMLVRTHMQDLKDVTRETHYENYRAQCIQSMTRLVVKERNRNKLTRESGTDFPIPAVPPGTDPETEKLIREKDEELRRMQEMLHKIQRQMKETH | binds | –
2 | SEPT7 (protein, UniProt O55131 1-436) MSVSARSAAAEERSVNCGTMAQPKNLEGYVGFANLPNQVYRKSVKRGFEFTLMVVGESGLGKSTLINSLFLTDLYSPEYPGPSHRIKKTVQVEQSKVLIKEGGVQLLLTIVDTPGFGDAVDNSNCWQPVIDYIDSKFEDYLNAESRVNRRQMPDNRVQCCLYFIAPSGHGLKPLDIEFMKRLHEKVNIIPLIAKADTLTPEECQQFKKQIMKEIQEHKIKIYEFPETDDEEENKLVKKIKDRLPLAVVGSNTIIEVNGKRVRGRQYPWGVAEVENGEHCDFTILRNMLIRTHMQDLKDVTNNVHYENYRSRKLAAVTYNGVDNNKNKGQLTKSPLAQMEEERREHVAKMKKMEMEMEQVFEMKVKEKVQKLKDSEAELQRRHEQMKKNLEAQHKELEEKRRQFEEEKANWEAQQRILEQQNSSRTLEKNKKKGKIF | binds | binds
3 | SEPT2 (protein, UniProt P42208 1-361) MSKQQPTQFINPETPGYVGFANLPNQVHRKSVKKGFEFTLMVVGESGLGKSTLINSLFLTDLYPERIIPGAAEKIERTVQIEASTVEIEERGVKLRLTVVDTPGYGDAINCRDCFKTIISYIDEQFERYLHDESGLNRRHIIDNRVHCCFYFISPFGHGLKPLDVAFMKAIHNKVNIVPVIAKADTLTLKERERLKKRILDEIEEHSIKIYHLPDAESDEDEDFKEQTRLLKASIPFSVVGSNQLIEAKGKKVRGRLYPWGVVEVENPEHNDFLKLRTMLITHMQDLQEVTQDLHYENFRSERLKRGGRKVENEDMNKDQILLEKEAELRRMQEMIARMQAQMQMQMQGGDSDSGALGQHV | binds | binds
4 | GLAST (protein, UniProt P56564 1-543) MTKSNGEEPRMGGRMERLQQGVRKRTLLAKKKVQSLTKEDVKSYLFRNAFVLLTVTAVIVGTILGFALRPYKMSYREVKYFSFPGELLMRMLQMLVLPLIISSLVTGMAALDSKASGKMGMRAVVYYMTTTIIAVVIGIIIVIIIHPGKGTKENMYREGKIVQVTAADAFLDLIRNMFPPNLVEACFKQFKTSYEKRSFKVPIQSNETLLGAVINNVSEAMETLTRIREEMVPVPGSVNGVNALGLVVFSMCFGFVIGNMKEQGQALREFFDSLNEAIMRLVAVIMWYAPLGILFLIAGKIVEMEDMGVIGGQLAMYTVTVIVGLLIHAVIVLPLLYFLVTRKNPWVFIGGLLQALITALGTSSSSATLPITFKCLEENNGVDKRITRFVLPVGATINMDGTALYEALAAIFIAQVNNFDLNFGQIITISITATAASIGAAGIPQAGLVTMVIVLTSVGLPTDDITLIIAVDWFLDRLRTTTNVLGDSLGAGIVEHLSRHELKNRDVEMGNSVIEENEMKKPYQLIAQDNEPEKPVADSETKM | binds | binds
